Test results: patent US4585795A, “Control agent for protecting timber against fungi employing a mixture of an organic carboxylic acid salt and quaternary ammonium salt” (priority 1982, dated 1986)
At least one structure is not confirmed: it was looked up by name or label, or the drawing left a doubt.

Tested on: sapstain fungi (Aureobasidium pullulans, Sclerophoma entoxylina, Ceratocystis pilifera)
Assay: mini-board test on timber, sapstain
Details: examples 2, 5, 6 and 12
Protocol: Laboratory experiments were carried out by making (1) dish cultures with Czapek-Dox agar at a temperature of 23° C. and (2) mini-board tests at a temperature of 23° C. and a humidity of 100%. The dish cultures had been inoculated with spores of the fungus Aureobasidium pullulans. This is a known fungus causing sapstain. In the mini-board tests, the inoculation was carried out using a spore suspension which contained a mixture of the spores of sapstain fungi. The sapstain fungi used were Aureobasidium pullulans, Sclerophoma entoxylina and Ceratocystis pilifera.
In the mini-board tests it was studied whether the toxic effect is retained on the surface of timber. The dimensions of the mini-boards were 10×50×300 mm. They had been made from newly felled pine. The pieces were immersed for 20 s into the solutions studied and were then weighed and inoculated. The control pieces were immersed into pure water. Some of the test pieces were dried for 1 month at 23° C. at a humidity of 100% in dishes covered with a plastic sheet, whereafter the sapstain and the mildew growth in them were assessed visually. […]

CCCCCCCCCCCC[n+]1ccccc1 [DPC, dodecylpyridinium chloride]
synergism with Na-2-ethylhexanoate (in words): proved
